Experimental data taken from article PMC5597638.
Numbering of substitutions follows the chain as printed. No constants are given. Whether binding was seen depends on the method and setting. Binding seen in cells or lysates may run through a third protein. A result given as binding can be weak or reduced; the word gives no strength. Where a sequence is shown, tags or fusion partners need not be part of it.

B1: c-Abl SH3 domain binding protein-2 (3BP2), endogenous in U937 cells (protein, UniProt P78314 1-561)
chain: MAAEEMHWPVPMKAIGAQNLLTMPGGVAKAGYLHKKGGTQLQLLKWPLRFVIIHKRCVYYFKSSTSASPQGAFSLSGYNRVMRAAEETTSNNVFPFKIIHISKKHRTWFFSASSEEERKSWMALLRREIGHFHEKKDLPLDTSDSSSDTDSFYGAVERPVDISLSPYPTDNEDYEHDDEDDSYLEPDSPEPGRLEDALMHPPAYPPPPVPTPRKPAFSDMPRAHSFTSKGPGPLLPPPPPKHGLPDVGLAAEDSKRDPLCPRRAEPCPRVPATPRRMSDPPLSTMPTAPGLRKPPCFRESASPSPEPWTPGHGACSTSSAAIMATATSRNCDKLKSFHLSPRGPPTSEPPPVPANKPKFLKIAEEDPPREAAMPGLFVPPVAPRPPALKLPVPEAMARPAVLPRPEKPQLPHLQRSPPDGQSFRSFSFEKPRQPSQADTGGDDSDEDYEKVPLPNSVFVNTTESCEVERLFKATSPRGEPQDGLYCIRNSSTKSGKVLVVWDETSNKVRNYRIFEKDSKFYLEGEVLFVSVGSMVEHYHTHVLPSHQSLLLRHPYGYTGPR
B2: HA-3BP2 whose Pro418 was substituted to Arg (protein, UniProt P78314 1-561)
chain: B1 chain with P418R
B3: HA-tagged 3BP2 wild-type (protein, UniProt P78314 1-561)
chain: B1 chain
B4: HA-3BP2 whose PH domain is deleted (domain or fragment, UniProt P78314 134-561)
chain: EKKDLPLDTSDSSSDTDSFYGAVERPVDISLSPYPTDNEDYEHDDEDDSYLEPDSPEPGRLEDALMHPPAYPPPPVPTPRKPAFSDMPRAHSFTSKGPGPLLPPPPPKHGLPDVGLAAEDSKRDPLCPRRAEPCPRVPATPRRMSDPPLSTMPTAPGLRKPPCFRESASPSPEPWTPGHGACSTSSAAIMATATSRNCDKLKSFHLSPRGPPTSEPPPVPANKPKFLKIAEEDPPREAAMPGLFVPPVAPRPPALKLPVPEAMARPAVLPRPEKPQLPHLQRSPPDGQSFRSFSFEKPRQPSQADTGGDDSDEDYEKVPLPNSVFVNTTESCEVERLFKATSPRGEPQDGLYCIRNSSTKSGKVLVVWDETSNKVRNYRIFEKDSKFYLEGEVLFVSVGSMVEHYHTHVLPSHQSLLLRHPYGYTGPR

target: GST-tagged Abl-SH3 domain (mouse); assay: pull-down; GST-Abl-SH3 as bait; detergent-soluble lysates of IFN-γ-stimulated U937 or HL-60 cells, without or with cross-linking of FcγRI (mIgG2a, then F(ab′)2 anti-mouse IgG, 10 min, 37 °C); bound proteins analysed by immunoblotting; only the target purified

binding, binds:
B1
B2
B3
B4
